Results taken from paper PMC7864192 (Cancers, 2021).
pIC50: −log10 of the molar value. Like-named read-outs stand apart in the source and are kept apart here.

What was measured:
Details in all cases: Homo sapiens, read-out: IC50 in monotherapy
[1] = tested on: GCPA096 T1.V patient-derived AGCT cell line; assay: Cell viability drug screen (Cell Titer Glo 2.0, 72 h), mono- and combination therapy, GCPA096T1.V
[2] = tested on: GCPA113 T1.II patient-derived AGCT cell line; assay: Cell viability drug screen (Cell Titer Glo 2.0, 72 h), mono- and combination therapy, GCPA113T1.II
[3] = tested on: GCPA113 T1.III patient-derived AGCT cell line; assay: Cell viability drug screen (Cell Titer Glo 2.0, 72 h), mono- and combination therapy, GCPA113T1.III
[4] = tested on: GCPA096 T1.II patient-derived AGCT cell line; assay: Cell viability drug screen (Cell Titer Glo 2.0, 72 h), mono- and combination therapy, GCPA096T1.II
[5] = tested on: GCPA096 T1.I patient-derived AGCT cell line; assay: Cell viability drug screen (Cell Titer Glo 2.0, 72 h), mono- and combination therapy, GCPA096T1.I
[6] = tested on: GCPA007 T2.I patient-derived AGCT cell line; assay: Cell viability drug screen (Cell Titer Glo 2.0, 72 h), mono- and combination therapy, GCPA007T2.I
[7] = tested on: GCPA096 T1.XV patient-derived AGCT cell line; assay: Cell viability drug screen (Cell Titer Glo 2.0, 72 h), mono- and combination therapy, GCPA096T1.XV
[8] = tested on: GCPA113 T1.I patient-derived AGCT cell line; assay: Cell viability drug screen (Cell Titer Glo 2.0, 72 h), mono- and combination therapy, GCPA113T1.I
[9] = tested on: KGN cells (AGCT cell line); assay: Cell viability drug screen (Cell Titer Glo 2.0, 72 h), mono- and combination therapy, KGN
[10] = tested on: GCPA108 T3.IV patient-derived AGCT cell line; assay: Cell viability drug screen (Cell Titer Glo 2.0, 72 h), mono- and combination therapy, GCPA108T3.IV
[11] = tested on: GCPA007 T2.IV patient-derived AGCT cell line; assay: Cell viability drug screen (Cell Titer Glo 2.0, 72 h), mono- and combination therapy, GCPA007T2.IV

CC/C(=C(\c1ccccc1)c1ccc(OCCN(C)C)cc1)c1ccccc1 [Tamoxifen]
pIC50 [1]: 4.98 | pIC50 ([2]; 72 h): < 4.70 | pIC50 [2]: < 4.70 | pIC50 ([3]; 72 h): 4.94 | pIC50 [3]: 4.94 | pIC50 [4]: 4.80 | pIC50 [5]: < 4.70 | pIC50 [6]: 5.03 | pIC50 [7]: 4.78 | pIC50 ([8]; 72 h): 4.85 | pIC50 [8]: 4.85 | pIC50 ([9]; 72 h): 5.07 | pIC50 [9]: 5.07 | pIC50 ([10]; 72 h): 5.12 | pIC50 [10]: 5.12 | pIC50 ([11]; 72 h): 5.04 | pIC50 [11]: 5.04
